# Screen size: about 190,000 compounds; about 570 (0.3%) were called active. The inconclusive results got no clear call from the source; some entries with a clear call stand among them for comparison.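 The calls were made as follows: active = z-score above 3 at 5 µM with at least 500 cells counted in the well; inconclusive = wells under 500 cells, flagged as cytotoxic or low count; inactive = the rest.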
# Experiment: up-regulation of insulin promoter-GFP reporter – imaging, high-content screening, mouse beta cells (AID 1625)
# Settings: MIN6 insulin promoter-GFP reporter, at 5 µM, stronger effect = higher value
row,SMILES,z-score
1,O=C(COc1ccc(Cl)cc1)NCc1nnc(SCC(=O)NC2CCCCC2)o1,active: 3.28
2,COc1ccc(-n2c(-c3ccc(Br)cc3)c[n+]3c2SC(C)C3)cc1 (centres undefined),inconclusive: -2.89
3,CCc1sc(C(=O)Nc2ccccc2N2CCOCC2)cc1C,inactive: -0.87
4,NS(=O)(=O)c1ccc(NC=C2C(=O)OC3(CCCCC3)OC2=O)cc1,active: 3.78
5,CC1CCCCC1NS(=O)(=O)c1ccc(S(=O)(=O)NCc2ccncc2)cc1 (centres undefined),inconclusive: -1.28
6,Cc1cc(NC(=O)CSc2ccc3nnc(-c4ccc(Cl)cc4)n3n2)no1,inconclusive: -1.68
7,CCn1c(SCC(=O)N2CCc3ccccc3C2)nc2c1c(=O)n(C)c(=O)n2C,inactive: 0.52
8,Cc1ccc(Nc2nc(N)nc(CN3CCN(Cc4ccc5c(c4)OCO5)CC3)n2)c(C)c1,inconclusive: -0.25
9,CN(C)CCCC(C)(O)C(Cc1ccccc1)c1ccccc1 (centres undefined),inactive: -0.08
10,CCc1ccc(-c2nc(C(N)=O)c3[nH]c(=O)n(-c4ccccc4OC)c3n2)cc1,inactive: -0.06
11,CC1=CC(C)(C)Nc2ccc(OC(=O)c3ccco3)cc21,inactive: 2.01
12,CCCCNC(=S)NNC(=O)c1csc(C)c1CC,inactive: 0.36
13,CCC(C)NS(=O)(=O)c1ccc(S(=O)(=O)N2CCCC3(CCCCC3)C2)cc1 (centres undefined),inconclusive: -6.45
14,CC(C)(C)c1ccccc1OCC(=O)Nc1ncn[nH]1,inconclusive: -1.93
15,Cc1cc(C)c2sc(NNC(=O)c3ccc(S(=O)(=O)N4CCc5ccccc5C4)cc3)nc2c1,inconclusive: -3.06
16,C(=C\c1nc(N2CCCCCC2)c2ccccc2n1)/c1ccccc1,inconclusive: -2.91
17,Cc1cc(=O)[nH]c(SCC(=O)/C=C2\N(C)c3ccccc3C2(C)C)n1,inconclusive: -2.11
18,COc1ccc(C(=O)Nn2cnnc2)cc1OC,active: 4.36
19,CN(C)c1nc(N)nc(/C(C#N)=C/C2CC3C=CC2C3)n1 (centres undefined),active: 3.05
20,O=C(CSc1nnc(COc2ccccc2)o1)NCCc1ccccc1,inactive: 0.17
21,CCOc1ccc2c(c1)C(c1ccc(C)o1)=NNC(c1ccncc1)=N2,inactive: 0.06
22,O=C(COC(=O)Cc1ccccc1[N+](=O)[O-])NCc1ccccc1Cl,inconclusive: -6.11

row,SMILES,z-score
1,Cc1nc2ncnn2c(Nc2ccc3c(c2)OCO3)c1Cc1ccccc1,inconclusive: -0.85
2,CCOc1cc(C)c(S(=O)(=O)Nc2ccc3cn[nH]c3c2)cc1C,active: 4.24
3,COc1ccc(Cc2nnc(NC(=O)Cc3cccs3)s2)cc1,active: 3.48
4,COc1ccccc1C(=O)NC(=S)/C=C1/N(C)c2ccccc2C1(C)C,inconclusive: -2
5,Oc1c(N=Nc2ccccn2)ccc2ccccc12,inconclusive: -2.46
6,Cc1ccccc1NCC(=O)N/N=C/c1c[nH]c2ccccc12,active: 4.05
7,CCOC(=O)c1cc(C(C)(C)C)oc1CNC(=O)c1c(C)oc2c1CCCC2,inconclusive: -1.82
8,Cc1ccc(SCCC(=O)Nc2ccccc2C(=O)N2CCOCC2)cc1,inactive: -0.19
9,CC(=O)Nc1ccc(Cl)cc1C1COC(=O)C1=N (centres undefined),inactive: -0.15
10,CCCCCCCCCCn1ccc(=N)cc1,inconclusive: -4.74
11,COC(=O)c1ccc2c(c1)C(C)(C)C(/C=C/c1ccccc1O)=[N+]2C,inconclusive: -2.02
12,O=C(CN(c1cccc(C(F)(F)F)c1)S(=O)(=O)c1ccc(Cl)c([N+](=O)[O-])c1)NCc1ccccc1Cl,inconclusive: -2.51
13,Cc1cccc(NS(=O)(=O)c2ccc(C3CCCCC3)cc2)c1,inconclusive: 0.02
14,Cc1ccc2[nH]c(-c3ccccc3)c(CN(C)C)c(=O)c2c1,active: 4.17
15,Cc1cccc(NC(=S)N(CCN(C)C)Cc2cc3cc(C)ccc3[nH]c2=O)c1,inactive: -0.11
16,OC(COc1cccc2ccccc12)CN1CCN(c2ccccc2Cl)CC1 (centres undefined),active: 3.51
17,CCOC(=O)C(=Cc1cc(=O)c(OC)co1)C(=O)OCC,inconclusive: -3.31
18,CCCCCCn1ccc(=N)cc1,inconclusive: -4.6
19,O=C(O)c1cccc(COCC(F)(F)C(F)F)c1,inactive: -0.36
20,CC(C)C(c1nnnn1C1CCCC1)N1CCOCC1 (centres undefined),active: 3.02
21,Cc1[nH]n(-c2ccc([N+](=O)[O-])cc2)c(=O)c1C=NCCN1CCN(C(=O)c2ccccc2F)CC1,active: 4.48
22,CCOc1cc(S(=O)(=O)NCc2ccncc2)c(C)cc1C,inactive: -0.93

# Part of the list above, reformatted:
row | SMILES | z-score
13 | Cc1cccc(NS(=O)(=O)c2ccc(C3CCCCC3)cc2)c1 | inconclusive: 0.02
14 | Cc1ccc2[nH]c(-c3ccccc3)c(CN(C)C)c(=O)c2c1 | active: 4.17
15 | Cc1cccc(NC(=S)N(CCN(C)C)Cc2cc3cc(C)ccc3[nH]c2=O)c1 | inactive: -0.11
